Results taken from US10633353B2, “Polymerizable compound, composition, polymer, optically anisotropic body, liquid crystal display element, and organic EL display” (DIC Corporation, priority 2014, dated 2020).

Experiments:
[1] = Optical property of the optical film (retardation, Re(450)/Re(550)); details: Re(450)/Re(550) of the optical film, RET-100
[2] = Alignment property of the optical film
[3] = optical film, visual inspection and polarized light microscope

Row | Structure (SMILES) | Optical property [1] | alignment property ([2]; summary in words) | alignment property [2, 3]
1 | C=CC(=O)OCCCOc1ccc(C(=O)Oc2ccc(C(=O)Oc3ccc(OCCCOC(=O)C=C)cc3/C=N/Nc3nc4ccccc4s3)cc2)cc1 [1-eh-71] | A (Re(450)/Re(550)≤0.85) | improved | 
2 | C=CC(=O)OCCCCCCOc1ccc(C(=O)Oc2ccc(C(=O)Oc3ccc(OCCCCCCOC(=O)C=C)cc3/C=N/Nc3nc4ccccc4s3)cc2)cc1 [1-eh-72] | A (Re(450)/Re(550)≤0.85) | improved | 
3 | C=CC(=O)OCCCOc1ccc(C(=O)Oc2ccc3cc(C(=O)Oc4ccc(OCCCOC(=O)C=C)cc4/C=N/Nc4nc5ccccc5s4)ccc3c2)cc1 [1-eh-74] | A (Re(450)/Re(550)≤0.85) | improved | 
4 | C=CC(=O)OCCCCCCOc1ccc(OC(=O)c2ccc(OC(=O)c3ccc4cc(OCCCCCCOC(=O)C=C)ccc4c3)cc2)c(/C=N/Nc2nc3ccccc3s2)c1 [1-eh-75] | A (Re(450)/Re(550)≤0.85) | improved | 
5 | C=CC(=O)OCCCCCCOc1ccc(C(=O)Oc2ccc(-c3ccc(OC(=O)c4ccc(OCCCCCCOC(=O)C=C)cc4)c(/C=N/Nc4nc5ccccc5s4)c3)cc2)cc1 [1-hk-84] | A (Re(450)/Re(550)≤0.85) | good | 
6 | C=CC(=O)OCCCCCCOc1ccc(C(=O)Oc2ccc(-c3ccc(OC(=O)c4ccc(OCCCCCCOC(=O)C=C)cc4)cc3/C=N/Nc3nc4ccccc4s3)cc2)cc1 [1-hk-85] | A (Re(450)/Re(550)≤0.85) | good | 
7 | C=CC(=O)OCCCCCCOc1ccc(C(=O)Oc2ccc(-c3ccc(OC(=O)c4ccc(OCCCCCCOC(=O)C=C)cc4)cc3C=NN=C3c4ccccc4-c4ccccc43)cc2)cc1 [1-hk-86] | A (Re(450)/Re(550)≤0.85) | good | 
8 | C=CC(=O)OCCCOC(=O)/C=C/c1ccc(C(=O)Oc2ccc(OC(=O)c3ccc(/C=C/C(=O)OCCCOC(=O)C=C)cc3)c(/C=N/Nc3nc4ccccc4s3)c2)cc1 [1-j-61] | A (Re(450)/Re(550)≤0.85) |  | 
9 | C=CC(=O)OCCCCCCOC(=O)/C=C/c1ccc(C(=O)Oc2ccc(OC(=O)c3ccc(/C=C/C(=O)OCCCCCCOC(=O)C=C)cc3)c(/C=N/Nc3nc4ccccc4s3)c2)cc1 [1-j-62] | A (Re(450)/Re(550)≤0.85) |  | 
10 | C=CC(=O)OCCCCOC(=O)/C=C/c1ccc(C(=O)Oc2ccc(OC(=O)c3ccc(/C=C/C(=O)OCCCCOC(=O)C=C)cc3)c(/C=N/N(c3ccccc3)c3ccccc3)c2)cc1 [1-j-64] | A (Re(450)/Re(550)≤0.85) |  | 
11 | C=CC(=O)OCCCCOC(=O)/C=C/c1ccc(C(=O)Oc2ccc(OC(=O)c3ccc(/C=C/C(=O)OCCCCOC(=O)C=C)cc3)c(/C=N/Nc3nc4ccc5ccccc5c4s3)c2)cc1 [1-j-65] | A (Re(450)/Re(550)≤0.85) |  | 
12 | C=CC(=O)OCCCCCCOc1ccc(C(=O)Oc2ccc(OC(=O)c3ccc(OCCCCCCOC(=O)C=C)cc3)c3sc(-c4ccc([N+](=O)[O-])cc4)nc23)cc1 [r-1, reference compound] | C (0.95<Re(450)/Re(550)≤1.05) |  | C (Although the degree of the orientation of the optical film which was visually confirmed was lower than those defined in A and B, the inspection of the optical film with a polarized light microscope confirmed that the orientation area was 60% to 90%.)
13 | C=CC(=O)OCCCCCCOc1ccc(OC(=O)C2CCC(C(=O)Oc3ccc(OC(=O)C4CCC(C(=O)Oc5ccc(OCCCCCCOC(=O)C=C)cc5)CC4)c4c3SC(=C(C#N)C#N)S4)CC2)cc1 (stereo not drawn) [r-2, reference compound] | C (0.95<Re(450)/Re(550)≤1.05) |  | C (Although the degree of the orientation of the optical film which was visually confirmed was lower than those defined in A and B, the inspection of the optical film with a polarized light microscope confirmed that the orientation area was 60% to 90%.)
14 | C=CC(=O)OCCCCCCOC1CCC(OC(=O)C2CCC(C(=O)Oc3ccc(OC(=O)C4CCC(C(=O)OC5CCC(OCCCCCCOC(=O)C=C)CC5)CC4)c4c3SC(=C(C#N)C(=O)OCC)S4)CC2)CC1 (stereo not drawn) [r-3, reference compound] | C (0.95<Re(450)/Re(550)≤1.05) |  | C (Although the degree of the orientation of the optical film which was visually confirmed was lower than those defined in A and B, the inspection of the optical film with a polarized light microscope confirmed that the orientation area was 60% to 90%.)
